Assay: general procedure: hybrid (solid and solution phase) peptide synthesis; BOC-Phe-Met-OR; BOC-Tyr hydroxysuccinimide ester

Substance | step yield (coupling step) | also measured
BOC-Tyr-2-[R-(3-amino-2-oxo-1-azepine)acetic acid]-Phe-Met-NH2 | 55% | –
BOC-Tyr-2-[R-(3-amino-2-oxo-1-pyrrolidine)acetic acid]-Phe-Met-NH2 | 81% | –
H-Tyr-2-[R-(2-oxo-1-azepine)acetic acid]-Phe-Met-NH2 | – | step yield (late stage modification step): 58%
H-Tyr-2-[R-(3-amino-2-oxo-1-pyrrolidine)acetic acid]-Phe-Met-NH2 hydrochloride | – | step yield (late stage modification step, hydrochloride): 82%

Reference: patent US4254107 (dated 1981)
